Measurements from PMC8545785.
No constants are given. Whether binding was seen depends on the method and setting. Binding seen in cells or lysates may run through a third protein. Some results given as binding are weak or reduced against the parent protein; the word gives no strength. For some of these results: Tags and fused reporters may be left off the sequences shown.

Protein sequences, listed by entry. Tags and fused reporters are not part of them.
UniProt P42771: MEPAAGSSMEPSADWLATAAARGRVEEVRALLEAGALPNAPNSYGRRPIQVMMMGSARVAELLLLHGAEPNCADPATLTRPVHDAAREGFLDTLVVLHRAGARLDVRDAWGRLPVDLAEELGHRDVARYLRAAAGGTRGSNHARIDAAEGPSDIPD

Tests used:
[1] = target: T1, p16^INK4a (mouse, endogenous) (mouse (endogenous in ileum)) (UniProt P51480); test: co-IP; total protein from ileum / intestinal epithelium of WT and Bmi-1-/- mice; Pierce Co-IP kit; anti-p16 or anti-occludin antibody overnight, anti-IgG as control; Western blots for p16 and occludin
T1 sequence: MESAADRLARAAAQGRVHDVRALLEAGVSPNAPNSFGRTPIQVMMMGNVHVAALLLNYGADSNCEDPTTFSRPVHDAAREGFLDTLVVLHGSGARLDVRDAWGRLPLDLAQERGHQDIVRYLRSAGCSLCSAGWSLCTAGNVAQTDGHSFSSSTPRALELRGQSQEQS

[2] = target: T1, p16^INK4a (mouse, endogenous) (mouse (endogenous in ileum)); test: proximity ligation; Duolink PLA on paraffin sections of ileum from Bmi-1-/- mice with antibodies against p16 and occludin
[3] = target: Flag-p16 (human), full length, from GFP-labeled overexpression adenovirus (human) (UniProt P42771); test: co-IP; 293T cells with Flag-p16 adenovirus and His-tagged occludin plasmids; cell extracts precipitated with anti-Flag antibody, blots with anti-His or anti-Flag

B1: occludin (mouse, endogenous) (protein, UniProt Q61146 1-521)
chain: MSVRPFESPPPYRPDEFKPNHYAPSNDMYGGEMHVRPMLSQPAYSFYPEDEILHFYKWTSPPGVIRILSMLIIVMCIAIFACVASTLAWDRGYGTGLFGGSLNYPYSGFGYGGGYGGGYGGYGYGYGGYTDPRAAKGFLLAMAAFCFIASLVIFVTSVIRSGMSRTRRYYLIVIIVSAILGIMVFIATIVYIMGVNPTAQASGSMYGSQIYMICNQFYTPGGTGLYVDQYLYHYCVVDPQEAIAIVLGFMIIVAFALIIFFAVKTRRKMDRYDKSNILWDKEHIYDEQPPNVEEWVKNVSAGTQDMPPPPSDYAERVDSPMAYSSNGKVNGKRSYPESFYKSTPLVPEVAQEIPLTLSVDDFRQPRYSSNGNLETPSKRAPTKGKAGKGKRTDPDHYETDYTTGGESCEELEEDWVREYPPITSDQQRQLYKRNFDAGLQEYKSLQAELDDVNKELSRLDKELDDYREESEEYMAAADEYNRLKQVKGSADYKSKRNYCKQLKSKLSHIKRMVGDYDRRKP
[1]
  binding: binds
[2]
  binding: binds

B2: His-tagged full-length human occludin (protein, UniProt Q16625 1-522)
chain: MSSRPLESPPPYRPDEFKPNHYAPSNDIYGGEMHVRPMLSQPAYSFYPEDEILHFYKWTSPPGVIRILSMLIIVMCIAIFACVASTLAWDRGYGTSLLGGSVGYPYGGSGFGSYGSGYGYGYGYGYGYGGYTDPRAAKGFMLAMAAFCFIAALVIFVTSVIRSEMSRTRRYYLSVIIVSAILGIMVFIATIVYIMGVNPTAQSSGSLYGSQIYALCNQFYTPAATGLYVDQYLYHYCVVDPQEAIAIVLGFMIIVAFALIIFFAVKTRRKMDRYDKSNILWDKEHIYDEQPPNVEEWVKNVSAGTQDVPSPPSDYVERVDSPMAYSSNGKVNDKRFYPESSYKSTPVPEVVQELPLTSPVDDFRQPRYSSGGNFETPSKRAPAKGRAGRSKRTEQDHYETDYTTGGESCDELEEDWIREYPPITSDQQRQLYKRNFDTGLQEYKSLQSELDEINKELSRLDKELDDYREESEEYMAAADEYNRLKQVKGSADYKSKKNHCKQLKSKLSHIKKMVGDYDRQKT
[3]
  binding: binds

B3: His-tagged human occludin 266–522–truncated fragment (domain or fragment, UniProt Q16625 266-522)
chain: KTRRKMDRYDKSNILWDKEHIYDEQPPNVEEWVKNVSAGTQDVPSPPSDYVERVDSPMAYSSNGKVNDKRFYPESSYKSTPVPEVVQELPLTSPVDDFRQPRYSSGGNFETPSKRAPAKGRAGRSKRTEQDHYETDYTTGGESCDELEEDWIREYPPITSDQQRQLYKRNFDTGLQEYKSLQSELDEINKELSRLDKELDDYREESEEYMAAADEYNRLKQVKGSADYKSKKNHCKQLKSKLSHIKKMVGDYDRQKT
[3]
  binding: no binding
